We go through six substances from patent publication US20130244232A1 (priority 2012, published 2013).

The nature of data set [1]: general procedure: Fmoc solid-phase peptide synthesis; Sieber Amide resin (substitution level 0.52 mmol/g); PyBop/HOBt/DIEA and HATU/DIEA (solution couplings to porphyrin). The note with it: conjugation step.

“3,7,12,17-tetramethyl-porphyrin-2 (18)-N9epsilon-(Ace-Asp1-Glu2-Gln3-Gln4-Leu5-His6-Ser7-Gln8-Lys9-Arg10-Lys11-Ile12-Thr13-Leu14-NH2)-18(2)-N9epsilon-(Ace-Asp1-Glu2-Gln3-Gln4-Leu5-Gly6-Ser7-Gln8-Lys9-Arg10-NH2)-di-propionamide” returned a conjugation yield in data set [1] of 28% yield. On to “3,7,12,17-tetramethyl-porphyrin-2(18)-N9epsilon-(Ace-Asp1-Glu2-Gln3-Gln4-Leu5-His6-Ser7-Gln8-Lys9-Arg10-Lys11-Ile12-Thr13-Leu14-NH2)-18(2)-N9epsilon-(Ace-Asp1-Glu2-Gln3-Gln4-Leu5-Ser6-Ser7-Gln8-Lys9-Arg10-NH2)-di-propionammide”, for which the “final HPLC purity” value in data set [1] (analytical RP-HPLC) is over 99%. The conjugation yield result is “yield 42%” in data set [1] (run 1) and 48% yield in data set [1] (run 2). Regarding “3,7,12,17-tetramethyl-porphyrin-2(18)-N9epsilon-(Ace-Asp1-Glu2-Gln3-Gln4-Leu5-His6-Ser7-Gln8-Lys9-Arg10-Lys11-Ile12-Thr13-Leu14-NH2)-18(2)-N9epsilon-(Ace-Asp1-Glu2-Gln3-Gln4-Leu5-Ser6-Ser7-Gln8-Lys9-Leu10-NH2)-di-propionamide”, in data set [1], the conjugation yield was 28% yield. In data set [1], “3,7,12,17-tetramethyl-porphyrin-2(18)-N9epsilon-(Ace-Asp1-Glu2-Gln3-Gln4-Leu5-His6-Ser7-Gln8-Lys9-Arg10-Lys11-Ile12-Thr13-Leu14-NH2)-18(2)-N9epsilon-(Ace-Asp1-Leu2-Gln3-Gln4-Leu5-Ser6-Ser7-Gln8-Lys9-Arg10-NH2)-di-propionamide” yielded a conjugation yield of 30% yield.

As to “3,7,12,17-tetramethyl-porphyrin-2(18)-N9epsilon-(Ace-Asp1-Leu2-Gln3-Gln4-Leu5-His6-Ser7-Gln8-Lys9-Arg10-Lys11-Ile12-Thr13-Leu14-NH2)-18(2)-N9epsilon-(Ace-Asp1-Glu2-Gln3-Gln4-Leu5-Ser6-Ser7-Gln8-Lys9-Arg10-NH2)-di-propionamide”, in data set [1], the conjugation yield is listed as 27% yield. As to “Fe3+ complex of the product 3,7,12,17-tetramethyl-porphyrin-2 (18)-N9epsilon-(Ace-Asp1-Glu2-Gln3-Gln4-Leu5-His6-Ser7-Gln8-Lys9-Arg10-Lys11-Ile12-Thr13-Leu14-NH2)-18(2)-N9epsilon-(Ace-Asp1-Glu2-Gln3-Gln4-Leu5-Ser6-Ser7-Gln8-Lys9-Arg10-NH2)”, the conjugation yield in “peptide synthesis” (conjugation step) stood at 25% yield. Further, in the data set “peptide synthesis” (late stage modification step), the step yield entry is on record as “yield 54%”.
